Results from article PMC9561260.
These are yes or no findings as the source states them, for the method shown. In cells and extracts the contact can be indirect. Some results given as binding are weak or reduced against the parent protein; the word gives no strength. Sequences can lack the tags named with a protein.

Chains of the proteins cited; added tags and fusions are not shown.
UniProt O09106: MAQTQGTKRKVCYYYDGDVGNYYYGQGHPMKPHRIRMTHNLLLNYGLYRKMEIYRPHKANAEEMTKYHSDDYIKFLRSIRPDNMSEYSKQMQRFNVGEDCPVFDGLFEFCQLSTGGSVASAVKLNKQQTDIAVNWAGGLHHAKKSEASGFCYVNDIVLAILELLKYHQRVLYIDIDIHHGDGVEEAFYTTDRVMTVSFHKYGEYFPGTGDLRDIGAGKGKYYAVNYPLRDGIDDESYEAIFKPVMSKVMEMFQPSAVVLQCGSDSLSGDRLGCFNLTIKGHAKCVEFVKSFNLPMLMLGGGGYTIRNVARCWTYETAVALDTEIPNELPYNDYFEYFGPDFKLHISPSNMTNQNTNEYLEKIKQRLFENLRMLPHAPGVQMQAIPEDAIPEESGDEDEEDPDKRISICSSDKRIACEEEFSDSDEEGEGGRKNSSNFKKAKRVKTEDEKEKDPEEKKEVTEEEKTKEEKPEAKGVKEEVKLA

T1: 2×HA-3×FLAG-Eya1 (Eya1^HA-FLAG knockin) (mouse) (UniProt P97767)
T1 sequence: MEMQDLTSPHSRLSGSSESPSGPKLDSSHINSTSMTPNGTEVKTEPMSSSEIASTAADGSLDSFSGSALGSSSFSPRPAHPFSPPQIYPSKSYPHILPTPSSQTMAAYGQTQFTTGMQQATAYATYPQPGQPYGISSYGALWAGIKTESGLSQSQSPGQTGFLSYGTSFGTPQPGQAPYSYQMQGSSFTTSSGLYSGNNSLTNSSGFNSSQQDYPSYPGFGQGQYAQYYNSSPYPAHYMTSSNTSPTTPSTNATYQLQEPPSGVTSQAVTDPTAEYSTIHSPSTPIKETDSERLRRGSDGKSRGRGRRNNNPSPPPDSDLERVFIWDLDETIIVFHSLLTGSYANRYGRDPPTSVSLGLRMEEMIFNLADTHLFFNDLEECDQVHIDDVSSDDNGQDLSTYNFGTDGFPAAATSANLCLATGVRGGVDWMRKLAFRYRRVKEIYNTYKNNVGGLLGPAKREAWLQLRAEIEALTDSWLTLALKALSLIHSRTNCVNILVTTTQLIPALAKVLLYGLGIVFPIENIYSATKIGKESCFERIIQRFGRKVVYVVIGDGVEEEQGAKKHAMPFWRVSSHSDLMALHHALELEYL


Biological target: T1, 2×HA-3×FLAG-Eya1 (Eya1^HA-FLAG knockin) (mouse)
Assay: co-IP; lysate of E14.5 Eya1^HA-FLAG kidneys on anti-FLAG M2 beads overnight; washed 4 times with IP buffer with 0.1% detergent; western blot

binding | Molecule
binds | Hdac1 (from UniProt O09106 1-482)
binds | Hltf (protein, UniProt Q6PCN7 1-1003) MSYTFTRGPVWKYSQSVQYGSHENIPRLSYSTFLPHFEFQDIIPPDDFLTSDEEQDLVLFGTMRGQVVGLRYYTGVVNNNEMVALQREPNNPYDKNAIKVNNVNGNQVGHIKREIAAAVAYIMDNKLAQVEGVVPFGASNTFTMPLYMTFWGKEENRNVVLEQLKKHGFKLGPTPKTLGSSLENAWGSGRAGPSYSRPAHVAVQMTTDQLKTEFDKLFEDLKEDDRTVEMEPAEAIETPLLPHQKQALAWMIARENSKELPPFWEQRNDLYYNTITNFSVKERPENVHGGILADDMGLGKTLTAIAVILTNFDDGRPLLSKRGKKNHPGKEYKDETIKRRGSNMDKKEDGHSESSTCGEEPSISGTPEKSSCTLSQLSSVCPKRRKISVQYIESSDSEEIETSELPQKMKGKLKNVQLNTKSRVKGSSKVKEDSKFALTFFASATQRKMLKKGMSMMECSEACDTGERTRATLIICPLSVLSNWIDQFGQHVKSEVHLNFYVYYGPDRIRDSAWLSKQDIILTTYNILTHDYGTKDDSPLHSIKWLRVILDEGHAIRNPNAQQTKAVLELEAERRWVLTGTPIQNSLKDLWSLLSFLKLKPFIDREWWYRIIQRPVTTGDEGGLRRLQSLIKNITLRRTKTSKIKGKPVLELPERKVFIQHITLSEEERKIYQSVKNEGKAAIGRYFTEGTVLAHYADVLGLLLRLRQICCHTHLLTNGMSSSGPSRSDTPEELRKMLIEKMKIILSSGSDEECAICLDSLTFPVITHCAHVFCKPCICQVIHSEQPHAKCPLCRNEIHGDNLLECPPEELACDSDKESSMEWKSSSKINALMHALIELRTKDPNIKSLVVSQFTTFLSLIETPLKASGFVFTRLDGSMAQKKRVESIQRFQNTEAGSPTIMLLSLKAGGVGLNLCAASRVFLMDPAWNPAAEDQCFDRCHRLGQKQEVIITKFIVKDSVEENMLKIQNTKRDLAAGAFGTKKTDANDMKQAKINEIRTLIDL
binds | Rest (protein, UniProt Q8VIG1 1-1082) MATQVMGQSSGGGSLFNNSANMGMALTNDMYDLHELSKAELAAPQLIMLANVALTGEASGSCCDYLVGEERQMAELMPVGDNHFSESEGEGLEESADLKGLENMELGSLELSAVEPQPVFEASAAPEIYSANKDPAPETPVAEDKCRSSKAKPFRCKPCQYEAESEEQFVHHIRIHSAKKFFVEESAEKQAKAWESGSSPAEEGEFSKGPIRCDRCGYNTNRYDHYMAHLKHHLRAGENERIYKCIICTYTTVSEYHWRKHLRNHFPRKVYTCSKCNYFSDRKNNYVQHVRTHTGERPYKCELCPYSSSQKTHLTRHMRTHSGEKPFKCDQCNYVASNQHEVTRHARQVHNGPKPLNCPHCDYKTADRSNFKKHVELHVNPRQFNCPVCDYAASKKCNLQYHFKSKHPTCPSKTMDVSKVKLKKTKKREADLLNNAVSNEKMENEQTKTKGDVSGKKNEKPVKAVGKDASKEKKPGSSVSVVQVTTRTRKSAVAAETKAAEVKHTDGQTGNNPEKPCKAKKNKRKKDAEAHPSEEPVNEGPVTKKKKKSECKSKIGTNVPKGGGRAEERPGVKKQSASLKKGTKKTPPKTKTSKKGGKLAPKGMGQTEPSSGALAQVGVSPDPALIQAEVTGSGSSQTELPSPMDIAKSEPAQMEVSLTGPPPVEPAQMEPSPAKPPQVEAPTYPQPPQRGPAPPTGPAPPTGPAPPTEPAPPTGLAEMEPSPTEPSQKEPPPSMEPPCPEELPQAEPPPMEDCQKELPSPVEPAQIEVAQTAPTQVQEEPPPVSEPPRVKPTKRSSLRKDRAEKELSLLSEMARQEQVLMGVGLVPVRDSKLLKGNKSAQDPPAPPSPSPKGNSREETPKDQEMVSDGEGTIVFPLKKGGPEEAGESPAELAALKESARVSSSEQNSAMPEGGASHSKCQTGSSGLCDVDTEQKTDTVPMKDSAAEPVSPPTPTVDRDAGSPAVVASPPITLAENESQEIDEDEGIHSHDGSDLSDNMSEGSDDSGLHGARPTPPEATSKNGKAGLAGKVTEGEFVCIFCDRSFRKEKDYSKHLNRHLVNVYFLEEAAEEQEEQEEREEQE
binds | Cdyl (protein, UniProt Q9WTK2 1-593) MGIGNSQPNSQEAQLCTLPEKAEQPTDDNTCQQNNVVPATVSEPDQASPAIQDAETQVESIVDKRKNKKGKTEYLVRWKGYDSEDDTWEPEQHLVNCEEYIHDFNRRHNERQKEGSLARASRASPSNARKQISRSTHSTLSKTNSKALVVGKDHESKSSQLLAASQKFRKNPAPSLANRKNMDLAKSGIKILVPKSPVKGRTSVDGFQGESPEKLDPVDQGAEDTVAPEVTAEKPTGALLGPGAERARMGSRPRIHPLVPQVSGPVTAAMATGLAVNGKGTSPFMDALAANGTVTIQTSVTGVTAGKRKFIDDRRDQPFDKRLRFSVRQTESAYRYRDIVVRKQDGFTHILLSTKSSENNSLNPEVMKEVQSALSTAAADDSKLVLLSAVGSVFCCGLDFIYFIRRLTDDRKRESTKMADAIRNFVNTFIQFKKPIIVAVNGPAIGLGASILPLCDVVWANEKAWFQTPYTTFGQSPDGCSTVMFPKIMGGASANEMLFSGRKLTAQEACGKGLVSQVFWPGTFTQEVMVRIKELASCNPVVLEESKALVRCNMKMELEQANERECEVLKKIWGSAQGMDSMLKYLQRKIDEF
